No constants are given. Whether binding was seen depends on the method and setting. Some entries that bind do so weakly or less than the wild type.
Key:
[1] = molecular target: BoNT/A light-chain heavy-chain N-terminus (LCHN) domain (UniProt P0DPI0); assay: toxin domain binding ELISA of the mixture after 24 months at 2-8 C
[2] = molecular target: BoNT/A light-chain heavy-chain N-terminus (LCHN) domain (UniProt P0DPI0); assay: toxin domain ELISA of the 1:1:1 co-formulated mixture (FIG. 15C legend)
[3] = molecular target: BoNT/A light-chain heavy-chain N-terminus (LCHN) domain (UniProt P0DPI0); assay: ELISA, toxin domain coated on plate, anti-human IgG Fc-HRP detection
[4] = molecular target: BoNT/A heavy-chain C-terminus (HCC) domain (UniProt P0DPI0); assay: toxin domain binding ELISA of the mixture after 24 months at 2-8 C
[5] = molecular target: BoNT/A heavy-chain C-terminus (HCC) domain (UniProt P0DPI0); assay: toxin domain ELISA of the 1:1:1 co-formulated mixture (FIG. 15A legend)
[6] = molecular target: BoNT/A heavy-chain C-terminus (HCC) domain (UniProt P0DPI0); assay: ELISA, toxin domain coated on plate, anti-human IgG Fc-HRP detection

Measured: binding

B1: ABT03 (antibody, V domains shown)
VH: QVQLQQSGGGLVQPGGSLRLSCAASGFTFSNYAMTWVRQAPGKGLEWVSSISVGGSDTYYADSVKGRFTVSRDNSKNTLLLQMNSLRAEDTAVYYCAKVRTKYCSSLSCFAGFDSWGQGTRVTVSS
VL: DVVMTQSPSSLSASVGDRVTITCRASQSISSYLHWYQQKPGKAPTLLISDASSSQSGVPSRFSGSRFGTDFTLTISSLQPEDFATYYCQQSYSTRALTFGGGTKVEIK
binds: [1] | [2] | [3]

B2: ABT02 (antibody, V domains shown)
VH: QVQLVQSGGGVVHPGRSLKLSCAGSGFTFSDYDMHWVRQAPGKGLEWVAVMWFDGTEKYSAESVKGRFTISRDNSKNTLFLQMNSLRADDTAVYYCAREPDWLLWGDRGALDVWGQGTTVTVSS
VL: DIVMTQSPSTLSASVGDRVTITCWASQSISSRLAWYQQKPGKAPKLLMYEATSLGSGVPSRFSGSGSGTEFTLTISSLQPDDFAAYYCQHYDTYPYTFGQGTKLEIK
binds: [4] | [5] | [6]

Reference: patent US20110059079A1 (XOMA TECHNOLOGY, published 2011)
